Measured values from US20070098706A1 (University of Texas, published 2007).
No constants are given. Whether binding was seen depends on the method and setting. Binding seen in cells or lysates may run through a third protein. Some results given as binding are weak or reduced against the parent protein; the word gives no strength. Sequences can lack the tags named with a protein.

Chains of the proteins cited; added tags and fusions are not shown.
UniProt Q9Y5S8: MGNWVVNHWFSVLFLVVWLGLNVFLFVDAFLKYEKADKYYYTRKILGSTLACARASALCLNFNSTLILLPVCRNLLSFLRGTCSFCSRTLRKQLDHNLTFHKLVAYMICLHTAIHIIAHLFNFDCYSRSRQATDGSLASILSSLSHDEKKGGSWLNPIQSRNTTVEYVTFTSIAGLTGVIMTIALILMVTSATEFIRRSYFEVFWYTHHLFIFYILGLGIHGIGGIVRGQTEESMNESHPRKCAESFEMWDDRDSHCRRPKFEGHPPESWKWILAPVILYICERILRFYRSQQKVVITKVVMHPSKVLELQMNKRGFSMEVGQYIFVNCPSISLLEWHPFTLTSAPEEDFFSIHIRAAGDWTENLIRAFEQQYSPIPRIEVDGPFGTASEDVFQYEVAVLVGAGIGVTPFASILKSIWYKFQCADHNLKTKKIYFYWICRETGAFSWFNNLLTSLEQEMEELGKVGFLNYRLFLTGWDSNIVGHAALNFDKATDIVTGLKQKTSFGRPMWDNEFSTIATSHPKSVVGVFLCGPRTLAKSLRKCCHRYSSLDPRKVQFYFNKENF

T1: human p47^phox (human, UniProt P14598 1-390, labeled in vitro with [35S]-methionine/[35S]-cysteine)
T1 construct: no residue limits are printed
T1 sequence (looked up): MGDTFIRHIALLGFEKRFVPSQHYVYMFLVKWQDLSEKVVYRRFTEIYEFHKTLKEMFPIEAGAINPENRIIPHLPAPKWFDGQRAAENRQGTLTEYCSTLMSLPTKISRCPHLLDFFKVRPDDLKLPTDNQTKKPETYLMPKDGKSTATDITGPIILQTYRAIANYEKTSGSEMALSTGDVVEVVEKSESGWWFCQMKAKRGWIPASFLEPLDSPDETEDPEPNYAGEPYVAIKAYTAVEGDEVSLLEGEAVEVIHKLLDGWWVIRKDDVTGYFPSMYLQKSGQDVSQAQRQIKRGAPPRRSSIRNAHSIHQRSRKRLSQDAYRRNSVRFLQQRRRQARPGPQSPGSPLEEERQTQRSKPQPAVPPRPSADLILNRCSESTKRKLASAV

T2: human NOX2 (human) (UniProt P04839)
T2 sequence (labeled in vitro with [35S]-methionine/[35S]-cysteine, looked up): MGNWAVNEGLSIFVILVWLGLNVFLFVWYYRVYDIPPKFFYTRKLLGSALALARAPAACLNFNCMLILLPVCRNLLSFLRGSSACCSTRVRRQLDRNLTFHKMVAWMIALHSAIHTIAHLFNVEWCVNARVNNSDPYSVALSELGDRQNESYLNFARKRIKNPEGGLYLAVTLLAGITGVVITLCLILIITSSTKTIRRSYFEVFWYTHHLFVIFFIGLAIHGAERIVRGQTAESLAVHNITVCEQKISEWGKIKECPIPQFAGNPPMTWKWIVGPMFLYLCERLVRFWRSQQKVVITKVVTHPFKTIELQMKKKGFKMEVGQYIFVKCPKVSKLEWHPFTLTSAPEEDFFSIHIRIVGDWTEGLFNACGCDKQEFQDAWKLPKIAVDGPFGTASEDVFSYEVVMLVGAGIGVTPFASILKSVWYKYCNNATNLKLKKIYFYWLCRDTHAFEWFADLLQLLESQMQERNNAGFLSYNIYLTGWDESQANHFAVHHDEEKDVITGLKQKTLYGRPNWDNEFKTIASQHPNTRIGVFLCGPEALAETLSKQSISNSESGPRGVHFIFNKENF


Legend:
[1] = target: T1, human p47^phox; assay: GST pull-down of 35S-labelled p47phox with isolated SH3-containing polypeptides
Procedure: Binding interactions are carried out between GST, GST-NOXA1, GST-NOXA1_{SH3+)}, GST-(SH3wt) and GST-(SH3+) fusion proteins immobilized on GSH-Sepharose, and the in vitro synthesized [³⁵S]-labeled target proteins. Volumes of fusion protein bacterial lysates, previously determined to give equal loading of the GSH-Sepharose, are mixed for 5 min at room temperature with 250 μl of a 50% suspension of washed GSH-Sepharose in PBS (137 mM NaCl, 2.68 mM KCl, […] Na2HPO4, pH 7.3). The suspension is washed twice and resuspended to 500 μl in PBS with 10 mM DTT. Human NOX1, NOX2, p47^phox and MBP-NOXO1₍₂₈₈₋₃₇₀₎ are synthesized and labeled in vitro with [³⁵S]-methlionine/[³⁵S]-cysteine (Redivue Pro-mix L-[³⁵S] labeling mix, Amersham Biosciences, Inc. # AGQ0080) using the TNT® Coupled Reticulocyte Lysate System (Promega) and T7 RNA polymerase. A 24 μl aliquot of the labeling reaction is mixed with 476 μl of the resuspended immobilized GST fusion protein for 15 min at room temperature. The gel pellet is washed 4X with 500 μl of PBS/10 mM DTT/0.05% Triton X-100. […] The entire volume of the denatured samples is separated on 9% SDS-PAGE and analyzed by fluorography. A sample of the original binding gel is analyzed by denaturing SDS-PAGE and Coomassie staining to confirnm the loading of the GST proteins. […]

[2] = target: human NOX1 (human) (UniProt Q9Y5S8); assay: GST pull-down of 35S-labelled NOX1, SDS-PAGE and fluorography
[3] = target: T2, human NOX2 (human); assay: GST pull-down of 35S-labelled NOX2, SDS-PAGE and fluorography
[4] = target: T1, human p47^phox; assay: GST pull-down of 35S-labelled p47phox, SDS-PAGE and fluorography

| binding [1] | binding [2] | binding [3] | binding [4] | Binder |
| --- | --- | --- | --- | --- |
| binds |  |  |  | GST-(SH3)wt (protein, not shown: a dimerising Fc or GST) RGLQLQCRGAGGRPVLYQVVAQHSYSAQGPEDLGFRQGDTVDVLCEVDQAWLEGHCDGRIGIFPKCFVVPAGPRMSGAPGRLPRSQQGDQP |
|  | binds | binds |  | GST-NOXA1(SH3+) (protein, not shown: a dimerising Fc or GST) MASLGDLVRAWHLGAQAVDRGDWARALHLFSGVPAPPARLCFNAGCVHLLAGDPEAALRAFDQAVTKDTCMAVGFFQRGVANFQLARFQEALSDFWLALEQLRGHAAIDYTQLGLRFKLQAWEVLHNVASAQCQLGLWTEAASSLREAMSKWPEGSLNGLDSALDQVQRRGSLPPRQVPRGEVFRPHRWHLKHLEPVDFLGKAKVVASAIPDDQGWGVRPQQPQGPGANHDARSLIMDSPRAGTHQGPLDAETEVGADRCTSTAYQEQRPQVEQVGKQAPLSPGLPAMGGPGPGPCEDPAGAGGAGAGGSEPLVTVTVQCAFTVALRARRGADLSSLRALLGQALPHQAQLGQLSYLAPGEDGHWVPIPEEESLQRAWQDAAACPRGLQLQCRGAGGRPVLYQVVAQHSYSAQGPEDLGFRQGDTVDVLCEEPDVPLAVDQAWLEGHCDGRIGIFPKCFVVPAGPRMSGAPGRLPRSQQGDQP |
|  | binds | binds | binds | GST-NOXA1 (protein, not shown: a dimerising Fc or GST) MASLGDLVRAWHLGAQAVDRGDWARALHLFSGVPAPPARLCFNAGCVHLLAGDPEAALRAFDQAVTKDTCMAVGFFQRGVANFQLARFQEALSDFWLALEQLRGHAAIDYTQLGLRFKLQAWEVLHNVASAQCQLGLWTEAASSLREAMSKWPEGSLNGLDSALDQVQRRGSLPPRQVPRGEVFRPHRWHLKHLEPVDFLGKAKVVASAIPDDQGWGVRPQQPQGPGANHDARSLIMDSPRAGTHQGPLDAETEVGADRCTSTAYQEQRPQVEQVGKQAPLSPGLPAMGGPGPGPCEDPAGAGGAGAGGSEPLVTVTVQCAFTVALRARRGADLSSLRALLGQALPHQAQLGQLSYLAPGEDGHWVPIPEEESLQRAWQDAAACPRGLQLQCRGAGGRPVLYQVVAQHSYSAQGPEDLGFRQGDTVDVLCEVDQAWLEGHCDGRIGIFPKCFVVPAGPRMSGAPGRLPRSQQGDQP |
